Here are results for one molecule from PMC7549839, “Posttranslational insertion of small membrane proteins by the bacterial signal recognition particle” (PLoS Biology, 2020).

No constants are given. Whether binding was seen depends on the method and setting. Binding seen in cells or lysates may run through a third protein. Some binding calls cover weakened binding; strength is not graded here.

For assay [1], the target named is T1, MtlA-189 ribosome-associated nascent chain (E. coli) (UniProt P00550).
T1 sequence: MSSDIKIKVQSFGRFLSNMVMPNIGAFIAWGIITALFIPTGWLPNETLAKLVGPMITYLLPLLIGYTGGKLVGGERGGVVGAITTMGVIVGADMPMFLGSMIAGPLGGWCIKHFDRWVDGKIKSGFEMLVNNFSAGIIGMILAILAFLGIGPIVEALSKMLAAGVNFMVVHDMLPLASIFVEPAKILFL
The assay is described as follows: cross-linking; as the DSS cross-linking of MtlA-189 RNCs with purified SRP, but puromycin (1 mM) added prior to DSS; only the binder purified.

Assay [2] addresses T1, MtlA-189 ribosome-associated nascent chain (E. coli). The assay is described as follows: cross-linking; DSS cross-linking of in vitro synthesized MtlA-189 RNCs with added purified SRP; HEPES/NaOH pH 7.5, 30 min at 25 C; SDS-PAGE, autoradiography; only the binder purified.

B1: signal recognition particle (SRP), purified (complex, UniProt P0AGD7 1-453)
chain: MFDNLTDRLSRTLRNISGRGRLTEDNVKDTLREVRMALLEADVALPVVREFINRVKEKAVGHEVNKSLTPGQEFVKIVRNELVAAMGEENQTLNLAAQPPAVVLMAGLQGAGKTTSVGKLGKFLREKHKKKVLVVSADVYRPAAIKQLETLAEQVGVDFFPSDVGQKPVDIVNAALKEAKLKFYDVLLVDTAGRLHVDEAMMDEIKQVHASINPVETLFVVDAMTGQDAANTAKAFNEALPLTGVVLTKVDGDARGGAALSIRHITGKPIKFLGVGEKTEALEPFHPDRIASRILGMGDVLSLIEDIESKVDRAQAEKLASKLKKGDGFDLNDFLEQLRQMKNMGGMASLMGKLPGMGQIPDNVKSQMDDKVLVRMEAIINSMTMKERAKPEIIKGSRKRRIAAGCGMQVQDVNRLLKQFDDMQRMMKKMKKGGMAKMMRSMKGMMPPGFPGR
B1: the binding result is “no binding (condition: after puromycin (1 mM) treatment)” in assay [1] and “binds” in assay [2].
